# Test results: PubChem BioAssay AID2685 (National Center for Advancing Translational Sciences (NCATS), 2010)
# This is one part of the list. Shown are side measurements of this screen, not its main read-out; they come without a call. The list favours compounds with an active or inconclusive main result. Potencies come from curve fits of mixed quality, noted in brackets.
# Test: qHTS Assay for Lipid Storage Modulators in Drosophila S3 Cells;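 on cell number change: cells counted by Cell Tracker Red CMTPX staining in the red channel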
# Settings: BODIPY lipid droplet fluorescence, 18-24 h; for cell number change: measured here: cell count max response, cells fed with added oleic acid
# Method in brief: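 Laser-scanning cytometry quantifies lipid droplet accumulation (500–530 nm total intensity; droplet/cell object ratio) in oleic acid-fed (400 uM added) Drosophila S3 cells treated with a concentration series. 20 uM Triacsin C defined 100% inhibition.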
# [1] = measured here: lipid fluorescence (Fed channel) AC50, cells fed with added oleic acid
# [2] = measured here: cell number channel AC50, cells fed with added oleic acid
smiles,measurement,setting,value
CC(C)Cc1ccc(/C(=N/O)C(=O)O)s1,cell number change,,-24.3%
same,AC50,[1],"29.1 µM [falling, single point]"
O=c1c2ccccc2nc2n1C(CSc1ccc(F)cc1)CS2 (stereo not given),cell number change,,2.96%
same,AC50,[1],"0.82 µM [rising, partial curve]"
O=C(c1ccc(Cl)c([N+](=O)[O-])c1)N(Cc1cccc(Cl)c1)C1CCS(=O)(=O)C1 (stereo not given),cell number change,,-22.2%
same,AC50,[1],"13 µM [falling, partial curve]"
CCc1ccc(C(=O)COC(=O)CNC(=O)c2ccc(Br)o2)cc1,cell number change,,26.1%
CC(NC(=O)Nc1ccc(Br)cc1)C(C)(C)C (stereo not given),cell number change,,-10.2%
same,AC50,[1],"29.1 µM [falling, single point]"
O=S(=O)(Nc1ncccn1)c1ccc(NS(=O)(=O)c2cccc(Cl)c2Cl)cc1,cell number change,,-36.9%
same,AC50,[2],"0.92 µM [rising, full curve]"
COc1ccc(-c2csc(NC(=O)Cc3ccccc3)n2)cc1OC,AC50,[1],"2.91 µM [rising, partial curve]"
CCOC(=O)Cc1csc(NC(=O)COc2ccccc2OC)n1,cell number change,,-10.2%
CC(C)c1ccc(C2(C)NC(=O)N(CC(=O)NC3CCCC(C)C3C)C2=O)cc1 (stereo not given),cell number change,,-42.8%
same,AC50,[2],"29.1 µM [falling, single point]"
CC(C)C[C@H](NC(=O)Nc1ccccc1F)C(=O)O,cell number change,,-8.11%
same,AC50,[1],"3.66 µM [falling, full curve]"
CC(=O)Nc1ccc(NC(=O)CN(c2cccc([N+](=O)[O-])c2)S(C)(=O)=O)cc1,cell number change,,-11.1%
same,AC50,[1],"3.26 µM [falling, full curve]"
COc1cc(OC)cc(C(=O)NNC(=S)NCc2ccco2)c1,cell number change,,1.85%
same,AC50,[2],"5.8 µM [falling, single point]"
same,AC50,[1],"1.03 µM [falling, full curve]"
CCc1cc2c(-c3ccccc3)cc(=O)oc2cc1OC(C)C(=O)O (stereo not given),cell number change,,7.61%
same,AC50,[1],"29.1 µM [rising, single point]"
CCc1cc(=O)oc2c(C)c(O[C@@H]3O[C@H](CO)[C@@H](O)[C@H](O)[C@H]3O)ccc12,cell number change,,19%
CCOc1cc(/C=C/C(=O)OCC(=O)NCc2ccco2)cc(Cl)c1OC,cell number change,,-18.9%
C=CCc1cccc(CNc2c(C)n(C)n(-c3ccccc3)c2=O)c1O,cell number change,,-19.5%
same,AC50,[1],"29.1 µM [falling, single point]"
CCn1c(=O)cc(SCC(=O)N(C)Cc2ccccc2)c2ccccc21,cell number change,,97.6%
same,AC50,[2],"0.164 µM [rising, full curve, poor fit]"
O=C(O)c1cc(C(=O)C2CC2)c[nH]1,AC50,[2],"1.64 µM [falling, single point]"
same,AC50,[1],"2.59 µM [falling, partial curve, poor fit]"
Cc1ccc(S(=O)(=O)N(C)CCCC(=O)N2CCN(C=O)CC2)cc1,cell number change,,4.3%
same,AC50,[1],"29.1 µM [rising, single point]"
CCC1CCCCN1CCCNC(=O)CCCNC(=O)Cn1cnc2sc3c(c2c1=O)CCCC3 (stereo not given),cell number change,,28.6%
N#CCCn1cc(C(=O)Nc2ccc(C(=O)O)cc2)c(-c2cccs2)n1,cell number change,,-4.62%
same,AC50,[2],"0.0092 µM [falling, full curve]"
same,AC50,[1],"0.0058 µM [falling, full curve, poor fit]"
O=C(CSc1cc(Cl)ccc1Cl)NCCCn1ccnc1,cell number change,,-1.9%
same,AC50,[1],"6.51 µM [rising, single point]"
O=C(N/N=C/c1ccccn1)c1cc(-c2ccccc2)nc2ccccc12,cell number change,,-25.8%
same,AC50,[1],"14.6 µM [falling, partial curve]"
Nc1nc(SCC(=O)NC2CCCCC2)[nH]c(=O)c1-c1ccccc1,cell number change,,35.9%
same,AC50,[2],"29.1 µM [rising, single point]"
same,AC50,[1],"29.1 µM [rising, single point]"
COC(=O)c1ccc(C2C(C(=O)c3ccco3)=C(O)C(=O)N2c2cc(C)on2)cc1 (stereo not given),cell number change,,-6.37%
same,AC50,[1],"29.1 µM [rising, single point]"
Cc1cccnc1N(C(=O)Nc1cccc(Cl)c1)C1=NCC(C)(C)S1,cell number change,,-22.8%
same,AC50,[1],"32.6 µM [falling, single point]"
CC(C)(C)C(=O)NC1CC2CCCC(C1)N2C(=O)Nc1ccccc1Cl (stereo not given),cell number change,,11.8%
Fc1ccc(Nc2ncnc3sccc23)cc1,cell number change,,19.1%
same,AC50,[1],"0.13 µM [falling, full curve, poor fit]"
Cc1ccc(-c2ccc(SCC(=O)Nc3cc(C)on3)nn2)cc1,cell number change,,12.3%
same,AC50,[1],"29.1 µM [rising, single point]"
Cc1occc1-c1nnc(SCC(=O)NCCc2ccccc2)n1Cc1ccccc1,cell number change,,2.3%
same,AC50,[1],"0.00461 µM [rising, full curve, poor fit]"
CSc1nnc(-c2cc[n+](C)cc2)n1CCO,cell number change,,-33.8%
same,AC50,[2],"0.058 µM [falling, full curve, poor fit]"
same,AC50,[1],"0.146 µM [falling, full curve]"
CC(O)c1ccc(OCCN(C)c2ccccn2)cc1 (stereo not given),cell number change,,25.7%
same,AC50,[1],"9.2 µM [rising, partial curve, poor fit]"
CCOC(=O)NC(=O)COC(=O)CNC(=O)c1ccc(OCC)c(OCC)c1,cell number change,,2.15%
same,AC50,[1],"2.91 µM [rising, single point]"
COC(=O)C1CCCN1S(=O)(=O)c1ccc2ccccc2c1 (stereo not given),cell number change,,-13.2%
O=C(NCc1nc2ccccc2[nH]1)C1=C[C@@H](C2CCCCC2)C[C@@H](OCCCCO)O1,cell number change,,-4.92%
same,AC50,[1],"25.9 µM [rising, single point]"
O=C(C(=O)N1CCOCC1)c1cn(CCOc2ccccc2)c2ccccc12,cell number change,,-44.9%
same,AC50,[2],"29.1 µM [falling, single point]"
same,AC50,[1],"29.1 µM [falling, single point]"
CCc1ccccc1N(CC(=O)N1CCN(c2ccc(F)cc2)CC1)S(C)(=O)=O,cell number change,,-10.8%
O=C(NC1CC1)C1=C[C@@H](c2c[nH]c3ccccc23)C[C@@H](OCc2ccc(CO)cc2)O1,cell number change,,-5.4%
same,AC50,[1],"29.1 µM [falling, single point]"
CCOc1ccc(NC(=O)CCNC(=O)Cn2ccc3ccccc3c2=O)cc1,cell number change,,16.7%
same,AC50,[1],"2.59 µM [rising, full curve]"
Cc1cccc(-c2nnc(SCc3cc(=O)[nH]c4ccccc34)n2C)c1,cell number change,,34.4%
same,AC50,[2],"0.92 µM [rising, full curve, poor fit]"
CCOC(=O)c1c(C)[nH]c(C(=O)CN2C(=O)NC(C)(CC(C)C)C2=O)c1C (stereo not given),cell number change,,13.2%
same,AC50,[2],"1.03 µM [rising, partial curve, poor fit]"
COc1ccc(CNC(=O)CSc2nnnn2C)cc1OC,cell number change,,14.2%
same,AC50,[1],"3.66 µM [falling, single point]"
O=[N+]([O-])c1cc2c(cc1/C=N/NS(=O)(=O)c1ccc(Br)cc1)OCO2,cell number change,,47.5%
same,AC50,[2],"23.1 µM [rising, single point]"
same,AC50,[1],"25.9 µM [rising, single point]"
CCOC(=O)c1oc2ccccc2c1NC(=O)Cc1cccs1,cell number change,,-38.2%
same,AC50,[2],"13 µM [falling, partial curve, poor fit]"
same,AC50,[1],"18.4 µM [falling, single point]"
O=C1C(Cl)=C(NCCN2CCCCC2)C(=O)c2ccccc21,cell number change,,-3.74%
same,AC50,[2],"0.461 µM [rising, full curve, poor fit]"
same,AC50,[1],"0.461 µM [rising, single point]"
CCN(CC)c1ccc(NC(=O)CCS(=O)(=O)c2ccc(Br)cc2)c(C)c1,cell number change,,8.03%
CC(=O)N1CCN(S(=O)(=O)c2cccc(C(=O)Nc3nc4ccccc4[nH]3)c2)CC1,cell number change,,29%
same,AC50,[1],"14.6 µM [rising, single point]"
CCOC(=O)c1sc(NC(=O)CS(=O)(=O)c2ccc(C)cc2)nc1C,cell number change,,-14.3%
same,AC50,[1],"4.11 µM [rising, full curve]"
Cc1ccccc1OCC(=O)NNC(=O)CSc1nc(N)cc(N)n1,cell number change,,12%
same,AC50,[1],"10.3 µM [rising, partial curve]"
COc1ccccc1NC(=O)Nc1nc(CC(=O)N2CCN(c3ccccc3)CC2)cs1,AC50,[2],"0.231 µM [rising, full curve]"
N#C/C(=C\N1CCN(Cc2ccc3c(c2)OCO3)CC1)c1nc2ccccc2s1,cell number change,,-38.4%
same,AC50,[2],"1.64 µM [falling, partial curve]"
same,AC50,[1],"20.6 µM [falling, partial curve]"
O=C1/C(=C/c2cccnc2)SC(=S)N1C1CCS(=O)(=O)C1 (stereo not given),cell number change,,-13.2%
same,AC50,[1],"6.51 µM [falling, partial curve]"
CC(=O)c1ccccc1-c1csc2ncnc(Sc3nnnn3C)c12,cell number change,,2.15%
same,AC50,[1],"0.00411 µM [rising, full curve, poor fit]"
Cc1cc(C)c(C(=O)Cn2cnc3cc([N+](=O)[O-])ccc3c2=O)cc1C,cell number change,,-15.5%
CCNc1nc(NC(C)C)nc(NC(C)(C)C)n1,cell number change,,-19.2%
same,AC50,[1],"0.00461 µM [falling, full curve, poor fit]"
CCOC(=O)/C(C#N)=C(\N)C(C)C(=O)Nc1ccccn1 (stereo not given),cell number change,,0.0258%
same,AC50,[1],"0.13 µM [rising, full curve]"
CCOc1ccc2c(c1)c(N=O)c(O)n2C,cell number change,,3.04%
same,AC50,[1],"29.1 µM [rising, single point]"
CCN(CC)C(=O)CSC1=C(C#N)C(c2cccs2)C=C(C)N1 (stereo not given),cell number change,,-6.83%
same,AC50,[1],"2.06 µM [rising, full curve, poor fit]"
Cc1ccc(C(=O)NC2CCCC2)cc1S(=O)(=O)N1CCCCC1,cell number change,,-16.8%
same,AC50,[1],"1.03 µM [falling, single point]"
COc1ccccc1Nc1ncnc2nc[nH]c12,cell number change,,66.3%
same,AC50,[2],"29.1 µM [rising, single point]"
same,AC50,[1],"29.1 µM [rising, single point]"
CC(=O)c1ccc(S(=O)(=O)N2CCN(c3ccccc3F)CC2)cc1,cell number change,,9.67%
same,AC50,[1],"0.00461 µM [falling, full curve, poor fit]"
